Data published in doi:10.1101/828426.
These are yes or no findings as the source states them, for the method shown. In cells and extracts the contact can be indirect. Some binding calls cover weakened binding; strength is not graded here.

The chains behind the UniProt entries cited, without tags or fusion partners. Where a name states a change or a piece, a line headed by the entry shows the natural chain unless it says otherwise. Residues count along the entry.
UniProt P15116, 160-906: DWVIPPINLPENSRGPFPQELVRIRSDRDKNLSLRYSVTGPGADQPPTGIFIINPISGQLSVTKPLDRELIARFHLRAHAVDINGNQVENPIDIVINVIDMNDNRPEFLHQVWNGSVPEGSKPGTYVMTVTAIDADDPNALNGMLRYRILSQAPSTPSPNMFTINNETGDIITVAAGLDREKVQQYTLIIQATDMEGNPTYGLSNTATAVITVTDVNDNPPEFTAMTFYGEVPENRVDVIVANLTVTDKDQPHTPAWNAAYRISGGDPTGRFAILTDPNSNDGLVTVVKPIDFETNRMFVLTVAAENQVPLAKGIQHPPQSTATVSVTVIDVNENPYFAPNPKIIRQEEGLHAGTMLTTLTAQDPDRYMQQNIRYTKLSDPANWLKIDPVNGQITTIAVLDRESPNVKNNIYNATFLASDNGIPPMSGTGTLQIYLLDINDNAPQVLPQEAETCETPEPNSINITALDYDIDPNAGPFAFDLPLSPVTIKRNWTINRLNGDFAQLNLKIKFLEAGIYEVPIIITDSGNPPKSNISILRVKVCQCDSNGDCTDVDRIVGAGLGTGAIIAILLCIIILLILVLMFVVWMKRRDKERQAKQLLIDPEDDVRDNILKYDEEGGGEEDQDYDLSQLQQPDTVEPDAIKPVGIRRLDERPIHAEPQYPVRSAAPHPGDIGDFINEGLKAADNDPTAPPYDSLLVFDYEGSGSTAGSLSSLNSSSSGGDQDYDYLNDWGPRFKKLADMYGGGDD
UniProt P15116, whole entry, looked up, stated change not applied: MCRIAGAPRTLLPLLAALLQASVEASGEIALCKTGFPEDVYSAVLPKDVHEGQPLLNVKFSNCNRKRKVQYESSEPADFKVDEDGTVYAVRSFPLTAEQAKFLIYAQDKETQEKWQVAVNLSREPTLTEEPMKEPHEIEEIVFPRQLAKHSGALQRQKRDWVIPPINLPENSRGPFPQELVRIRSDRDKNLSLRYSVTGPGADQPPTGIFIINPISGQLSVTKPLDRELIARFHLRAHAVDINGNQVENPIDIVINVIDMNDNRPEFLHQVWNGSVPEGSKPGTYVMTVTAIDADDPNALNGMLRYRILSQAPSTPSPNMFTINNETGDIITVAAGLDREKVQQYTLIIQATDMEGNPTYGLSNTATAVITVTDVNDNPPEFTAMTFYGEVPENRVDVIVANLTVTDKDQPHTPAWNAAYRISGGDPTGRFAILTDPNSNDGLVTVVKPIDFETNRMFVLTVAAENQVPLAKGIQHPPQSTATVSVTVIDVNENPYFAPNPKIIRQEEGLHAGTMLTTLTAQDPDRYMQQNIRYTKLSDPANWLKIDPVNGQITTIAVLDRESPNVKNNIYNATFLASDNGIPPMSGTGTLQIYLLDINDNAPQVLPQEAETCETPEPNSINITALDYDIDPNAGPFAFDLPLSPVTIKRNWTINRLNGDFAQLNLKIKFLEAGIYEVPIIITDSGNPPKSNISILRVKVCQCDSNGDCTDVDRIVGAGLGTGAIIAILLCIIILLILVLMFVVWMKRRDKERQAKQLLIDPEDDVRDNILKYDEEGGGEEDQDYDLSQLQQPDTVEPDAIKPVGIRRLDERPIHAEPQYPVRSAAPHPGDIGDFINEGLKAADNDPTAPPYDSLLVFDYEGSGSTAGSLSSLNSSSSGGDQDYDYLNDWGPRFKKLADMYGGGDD

Key:
Assay in all cases: co-IP
[1] = target: T1, Fbxo45 Δ225-229 (murine) (UniProt Q8K3B1)
T1 sequence: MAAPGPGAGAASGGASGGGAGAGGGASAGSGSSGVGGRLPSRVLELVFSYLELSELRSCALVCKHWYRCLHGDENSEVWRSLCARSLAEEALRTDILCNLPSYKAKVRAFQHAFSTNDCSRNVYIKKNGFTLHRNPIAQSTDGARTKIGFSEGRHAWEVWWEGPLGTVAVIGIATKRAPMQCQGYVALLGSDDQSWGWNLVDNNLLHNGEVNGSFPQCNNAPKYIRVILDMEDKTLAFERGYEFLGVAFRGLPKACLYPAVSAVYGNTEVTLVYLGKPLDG

[2] = target: T2, T7-Fbxo45 (murine) (UniProt Q8K3B1)
T2 sequence: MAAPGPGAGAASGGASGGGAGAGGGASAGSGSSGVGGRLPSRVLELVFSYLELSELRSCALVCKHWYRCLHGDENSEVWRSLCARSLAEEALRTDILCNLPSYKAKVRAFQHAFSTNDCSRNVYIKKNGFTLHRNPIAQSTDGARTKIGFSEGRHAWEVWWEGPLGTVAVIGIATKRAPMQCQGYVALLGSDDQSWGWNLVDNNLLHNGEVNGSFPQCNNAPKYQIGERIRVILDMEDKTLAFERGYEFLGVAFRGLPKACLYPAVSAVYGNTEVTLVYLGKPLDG

[3] = target: T3, Fbxo45 mutant 276 (murine) (UniProt Q8K3B1)
T3 sequence: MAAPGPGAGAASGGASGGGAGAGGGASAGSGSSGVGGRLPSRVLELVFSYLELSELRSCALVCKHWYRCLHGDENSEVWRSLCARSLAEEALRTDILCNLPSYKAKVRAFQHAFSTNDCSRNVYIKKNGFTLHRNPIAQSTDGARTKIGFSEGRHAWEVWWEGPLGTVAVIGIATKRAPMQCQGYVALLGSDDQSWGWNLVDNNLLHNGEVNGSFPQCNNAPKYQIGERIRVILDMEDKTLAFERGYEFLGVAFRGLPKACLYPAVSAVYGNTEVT

binding [1]	binding [2]	binding [3]	Substance
no binding	binds	no binding	NCad-HA (from UniProt P15116 160-906)
–	binds weakly	–	NC1 (from UniProt P15116 160-906)
–	no binding	–	NC12 (from UniProt P15116 160-906)
–	no binding	–	NC123 (from UniProt P15116 160-906)
